Screening data, single-dose tests

Sequences of proteins named here, by UniProt entry; tags and fusion partners are left off. Residues count along the entry.
UniProt P9WFT3, whole entry: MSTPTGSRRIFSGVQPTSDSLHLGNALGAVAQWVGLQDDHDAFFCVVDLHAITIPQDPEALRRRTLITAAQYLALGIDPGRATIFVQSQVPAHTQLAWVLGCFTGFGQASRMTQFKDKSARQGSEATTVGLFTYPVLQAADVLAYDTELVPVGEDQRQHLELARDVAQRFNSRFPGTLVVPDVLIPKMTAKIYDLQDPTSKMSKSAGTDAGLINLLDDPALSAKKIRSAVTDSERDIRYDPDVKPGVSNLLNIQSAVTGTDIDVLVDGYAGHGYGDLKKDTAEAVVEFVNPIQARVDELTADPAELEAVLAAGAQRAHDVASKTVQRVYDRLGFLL
UniProt P9WNZ1, whole entry: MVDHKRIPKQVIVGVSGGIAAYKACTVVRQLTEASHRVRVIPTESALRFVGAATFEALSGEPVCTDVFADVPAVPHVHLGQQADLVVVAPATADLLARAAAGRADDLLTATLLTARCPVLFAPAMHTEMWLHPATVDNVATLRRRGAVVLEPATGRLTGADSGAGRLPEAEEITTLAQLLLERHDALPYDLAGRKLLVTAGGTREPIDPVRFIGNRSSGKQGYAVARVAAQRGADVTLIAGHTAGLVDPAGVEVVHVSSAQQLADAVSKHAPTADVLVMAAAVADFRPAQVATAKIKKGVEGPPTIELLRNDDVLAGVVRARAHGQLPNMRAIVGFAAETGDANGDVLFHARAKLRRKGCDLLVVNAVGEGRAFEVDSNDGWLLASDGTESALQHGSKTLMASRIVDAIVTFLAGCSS
UniProt A4I591, 1-473: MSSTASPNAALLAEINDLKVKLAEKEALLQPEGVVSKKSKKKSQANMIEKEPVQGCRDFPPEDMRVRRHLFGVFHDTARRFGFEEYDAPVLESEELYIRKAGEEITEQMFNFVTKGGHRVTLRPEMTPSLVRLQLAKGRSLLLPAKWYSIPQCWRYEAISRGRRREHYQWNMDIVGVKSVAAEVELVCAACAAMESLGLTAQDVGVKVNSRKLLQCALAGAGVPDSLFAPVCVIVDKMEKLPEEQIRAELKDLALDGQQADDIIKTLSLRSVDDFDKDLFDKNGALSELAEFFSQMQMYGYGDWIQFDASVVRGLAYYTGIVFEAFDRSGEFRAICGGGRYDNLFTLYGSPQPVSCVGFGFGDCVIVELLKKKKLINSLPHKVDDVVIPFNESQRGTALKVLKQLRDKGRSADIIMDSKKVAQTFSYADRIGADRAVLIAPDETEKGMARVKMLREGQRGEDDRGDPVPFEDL
UniProt I6X8D2, whole entry: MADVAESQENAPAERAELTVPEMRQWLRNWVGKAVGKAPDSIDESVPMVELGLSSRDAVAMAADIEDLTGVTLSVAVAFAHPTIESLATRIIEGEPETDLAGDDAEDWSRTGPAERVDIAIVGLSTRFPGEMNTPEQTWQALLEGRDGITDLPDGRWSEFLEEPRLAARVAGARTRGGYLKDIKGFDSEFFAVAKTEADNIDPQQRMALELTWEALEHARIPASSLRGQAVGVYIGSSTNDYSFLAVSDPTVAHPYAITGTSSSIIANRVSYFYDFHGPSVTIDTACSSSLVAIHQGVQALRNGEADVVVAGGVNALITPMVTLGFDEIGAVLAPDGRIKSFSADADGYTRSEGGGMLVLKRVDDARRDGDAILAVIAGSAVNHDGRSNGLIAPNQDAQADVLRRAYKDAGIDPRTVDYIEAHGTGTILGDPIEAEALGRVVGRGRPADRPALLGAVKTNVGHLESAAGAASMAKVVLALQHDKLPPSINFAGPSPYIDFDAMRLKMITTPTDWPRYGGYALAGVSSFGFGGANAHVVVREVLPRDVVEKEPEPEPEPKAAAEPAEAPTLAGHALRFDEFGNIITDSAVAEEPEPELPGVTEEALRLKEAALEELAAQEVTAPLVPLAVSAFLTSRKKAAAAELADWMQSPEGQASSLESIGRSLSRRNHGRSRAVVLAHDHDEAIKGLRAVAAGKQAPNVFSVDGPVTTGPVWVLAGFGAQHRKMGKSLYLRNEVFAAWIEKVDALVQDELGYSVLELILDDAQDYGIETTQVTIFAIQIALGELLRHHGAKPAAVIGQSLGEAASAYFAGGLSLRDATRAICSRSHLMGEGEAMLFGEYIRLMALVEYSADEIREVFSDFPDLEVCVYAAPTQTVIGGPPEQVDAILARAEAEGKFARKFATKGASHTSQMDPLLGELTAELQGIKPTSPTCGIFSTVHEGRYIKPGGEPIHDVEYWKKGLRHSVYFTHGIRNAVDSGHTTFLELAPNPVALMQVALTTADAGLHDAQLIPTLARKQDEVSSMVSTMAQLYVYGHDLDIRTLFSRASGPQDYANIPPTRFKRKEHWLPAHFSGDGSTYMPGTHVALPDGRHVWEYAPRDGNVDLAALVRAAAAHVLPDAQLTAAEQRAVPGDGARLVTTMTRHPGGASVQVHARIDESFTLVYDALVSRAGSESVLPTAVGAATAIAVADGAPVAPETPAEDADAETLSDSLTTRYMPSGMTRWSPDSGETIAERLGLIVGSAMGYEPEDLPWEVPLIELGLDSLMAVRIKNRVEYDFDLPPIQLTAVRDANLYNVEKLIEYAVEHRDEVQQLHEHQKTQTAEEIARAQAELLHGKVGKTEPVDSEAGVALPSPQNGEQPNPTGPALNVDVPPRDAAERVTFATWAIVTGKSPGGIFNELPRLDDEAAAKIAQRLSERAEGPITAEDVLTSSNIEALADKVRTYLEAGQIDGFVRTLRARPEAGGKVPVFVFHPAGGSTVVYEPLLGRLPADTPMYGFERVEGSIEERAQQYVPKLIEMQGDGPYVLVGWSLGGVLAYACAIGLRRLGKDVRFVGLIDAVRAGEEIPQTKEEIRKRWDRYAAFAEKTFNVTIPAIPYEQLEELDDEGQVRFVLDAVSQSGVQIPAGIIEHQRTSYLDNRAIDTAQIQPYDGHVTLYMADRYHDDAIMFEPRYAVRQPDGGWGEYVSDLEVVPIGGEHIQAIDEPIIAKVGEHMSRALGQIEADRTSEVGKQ

MtTrpRS: 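Tryptophan-tRNA ligase, Mycobacterium tuberculosis (UniProt P9WFT3). Enzyme assay of tryptophanyl-tRNA synthetase; the read-out is not stated. Tested at 10 µM. Higher most likely means stronger inhibition; the record gives no direction and few retests gave an IC50. Of about 65,000 compounds tested this way, about 64 (0.098%) reached 50% or more in at least one test.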
CoaBC: 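Coenzyme A biosynthesis protein CoaBC, Mycobacterium tuberculosis (UniProt P9WNZ1). Enzyme assay of CoaBC with a phosphate dye (Biomol Green) read at 650 nm. Compounds at 30 µM. Direction is inferred from only a few compounds that gave an IC50; most scored high, so higher reads as stronger inhibition. Most strong results did not repeat in a second test. Of about 67,000 compounds tested this way, about 40 (0.06%) reached 50% or more in at least one test.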
LiHisRS: 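Histidine-tRNA ligase, Leishmania infantum (UniProt A4I591). Enzyme assay of histidyl-tRNA synthetase; the read-out is not stated. Concentration: 30 µM. Direction is inferred from retests: higher values go with stronger inhibition. The assay is labelled LdHisRS but filed under L. infantum. About 69,000 compounds were tested under these conditions; 0.6% (about 410) showed 50% or more at least once.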
Pks13 thioesterase: 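Polyketide synthase Pks13, Mycobacterium tuberculosis (UniProt I6X8D2). Enzyme assay of the thioesterase domain of polyketide synthase 13; the read-out is not stated. Compounds at 30 µM. The record gives no direction; the compounds picked for IC50 retests had high values, so higher reads as stronger inhibition. Size under these conditions: about 67,000 compounds, about 300 of them at 50% or above in at least one test.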

Values are the deposited “Percent Effect”, in %.
The record does not define 0% and 100%; most values in the screen are far below 50% and negative numbers occur (in some assays of this library far below -100).
Compounds were drawn at random from those tested, without regard to their results.
A dash means the value is not listed here; it may have been measured.

compound,MtTrpRS,CoaBC,LiHisRS,Pks13 thioesterase
Cc1c(C(=O)N2CCCC(n3cncn3)C2)cnn1C (stereo unspecified),3.01%,0.2681%,3.419%,-6.655%
Cc1cc(CN2CCC(CNC(=O)c3cnc(C)nc3C)C2)[nH]n1 (stereo unspecified),-1.444%,3.738%,32.89%,-12.61%
CN(Cc1nnc(-c2cccs2)o1)C(C(N)=O)c1cccc(F)c1 (stereo unspecified),-0.2045%,2.532%,13.16%,-5.319%
O=S1(=O)NCC2(CCN(Cc3ccncc3)CC2)Oc2ncccc21,8.211%,-3.158%,6.897%,-37.87%
N#CCCN(Cc1cccnc1)C(=O)Cc1ccc(-n2cnnn2)cc1,2.668%,10.71%,15.18%,-15.1%
CCN(CC)C(=O)CSc1ncc[nH]1,-1.677%,2.02%,-3.191%,-1.001%
CN(C)S(=O)(=O)N1C[C@@H]2CC[C@H](C1)N(Cc1ccc3c(c1)OCCO3)C2,-1.347%,9.576%,16.13%,6.553%
CCN1CCN(CC(=O)N2CCOC(Cc3ccc(OC)cc3)C2)CC1 (stereo unspecified),3.905%,-0.4878%,6.667%,-20.61%
COc1cccc(C(=O)N2CCCCC2c2nccs2)c1OC (stereo unspecified),-8.192%,1.746%,4.386%,-9.931%
O=C(CCc1nccs1)N1CCCC(N2CCNC2=O)C1 (stereo unspecified),-0.6415%,5.757%,19.23%,-4.935%
Cc1nc(C2CCN(C(=O)CO)CC2)cc(N2CCOCC2)n1,0.2506%,7.018%,19.05%,-15.89%
COc1cccc(CNC(=O)CCC2=Nc3ccccc3S(=O)(=O)N2)c1,1.187%,-6.983%,6.849%,-15.3%
O=C([C@H]1CCCO1)N1CCc2ncnc(NC3CC3)c2CC1,-2.251%,-0.6211%,5.769%,-0.1961%
NC(=O)C(Nc1ccc(Cl)cc1)c1ccc(F)cc1 (stereo unspecified),1.248%,-1.168%,30.97%,-12.75%
CN1CCCN(C(=O)c2nc3c(o2)CN(C(=O)c2cccnc2)C3)CC1,1.953%,-18.57%,25.71%,-26.23%
CCN(CC(F)(F)F)C(=O)C1CCCN(Cc2cscn2)C1 (stereo unspecified),0.1698%,2.195%,6.667%,-30.18%
Cc1nc(C)n(CC2CCCN(Cc3noc(C)n3)C2)n1 (stereo unspecified),1.278%,-3.106%,17.54%,-6.82%
CC(Cn1cccn1)NCC(=O)NC1CCOCC1 (stereo unspecified),0.7802%,-7.645%,10.96%,-6.36%
CCNC(=O)N(C)C1CCN(Cc2ncc(C)c(OC)c2C)CC1,2.466%,3.106%,15.38%,-9.311%
CN([C@@H]1CCC[C@@H](n2ccnc2)[C@@H]1O)S(=O)(=O)c1cn(C)cn1,16.14%,9.709%,11.43%,-8.199%
CC(C)c1noc(CN2CCN(C(=O)c3cccc(F)c3)CC2)n1,-8.96%,12.06%,8.929%,1.663%
NC(=O)c1ccc(N2CCCCC2)c(NC(=O)c2ccc(F)cc2F)c1,-0.2863%,7.43%,18.28%,-8.609%
CC(C)[C@@H]1CN(CCCOc2ccc(F)cc2)C[C@H]1NS(C)(=O)=O,-0.838%,-3.421%,7.692%,-14.59%
c1ccc(-c2nc3c(c(NCCn4ccnn4)n2)CCNCC3)nc1,-1.713%,-2.73%,17.02%,-18.2%
Cn1cc(-c2ncc(C(=O)NCCCn3ccccc3=O)s2)cn1,-1.376%,8.678%,18.75%,-8.477%
Cc1nc(-c2cn(CCN)nn2)n(-c2ccc3c(c2)CCC3)n1,0.301%,0.7317%,14.4%,-5.814%
NC(=O)c1ccc(OCCCN2CCC3(CC2)OCCCC3O)cc1 (stereo unspecified),0.576%,6.311%,4.762%,1.117%
Cn1nc2c(cc1=O)CN(Cc1nc(-c3ccco3)no1)CC2,-5.185%,4.439%,91.38%,7.094%
COC1CCN(S(=O)(=O)N2CCC3(CCCNC3=O)C2)CC1 (stereo unspecified),-1.417%,1.79%,14.75%,-23.36%
CC(CN1CCOCC1)NCc1nncn1C1CCCCC1 (stereo unspecified),0.1896%,-4.219%,12.5%,-1.236%
CS(=O)(=O)NCCCSCc1cccc2cccnc12,-0.9082%,-,18.31%,-41.28%
Cc1ccc(OCC(=O)NCC(F)(F)F)nc1,-0.1347%,-0.1212%,12.9%,-2.852%
Cc1nc2c(c(C)c1CC(=O)NCc1ccc(F)cc1)c(=O)[nH]n2C,17.93%,3.133%,-0.885%,-22.06%
Cc1cnn(CC2CCCCN2c2nn3cc(C)nc3s2)c1 (stereo unspecified),4.713%,-9.115%,15.38%,-44%
CN(Cc1ccncc1)CC1CCCN(CCc2ccc(Cl)cc2)C1 (stereo unspecified),4.248%,2.036%,30.77%,-26.94%
Cc1cc(CN2CCC(C3CCN(CC(C)C)CC3)C2)[nH]n1 (stereo unspecified),-3.704%,-29.22%,3.279%,-13.3%
Cc1noc(C)c1CC(=O)NCCN1CCN(S(C)(=O)=O)CC1,-6.394%,7.727%,16.44%,-2.985%
CC(=O)N1CCCC2(CCN(Cc3ccc(Cl)c(F)c3)C2)C1 (stereo unspecified),0.9168%,5.833%,23.08%,-25.91%
CN(C)C(=O)C1CCC2(CCNCC2)C1 (stereo unspecified),-3.8%,2.036%,13.59%,-13.32%
Cn1cc(C(=O)N2CC[C@@]3(O)CCN(C4CCCCC4)C[C@H]3C2)cn1,-1.954%,0.4673%,1.316%,3.891%
CCCc1ccc(CN2CCN(C(=O)C(C)C)[C@@H]3CS(=O)(=O)C[C@@H]32)o1,3.011%,-4.968%,8.264%,-12.13%
COC(=O)NCC(=O)N1CCc2cc(Cl)cc(Cl)c2C1,2.001%,3.046%,15.29%,-4.898%
COc1ccc(-c2cc(C[C@@H]3C[C@H](N(C)C)C3(C)C)no2)cc1,5.111%,-26.52%,8.108%,53.81%
CCc1nc(CN(Cc2cccs2)CC2CCCO2)no1 (stereo unspecified),-0.6823%,3.394%,0%,14.19%
Cc1cc(C)n(C2CCN(S(=O)(=O)N3CCC(C)CC3)CC2)n1,1.762%,2.913%,1.429%,-14.17%
Cc1nc(COC(=O)c2cccc3c2OCCO3)no1,2.877%,10.68%,10.59%,17.97%
O=S(=O)(NCCCn1cncn1)c1ccc2c(c1)CCC2,-1.782%,-3.151%,13.33%,-16.52%
CCOC(=O)c1ccc(CNC(=O)c2ccc(Cl)cn2)o1,1.556%,5.305%,9.649%,2.007%
COc1c(CNCc2cnn(C)c2)c(C(C)C)nn1C,-2.516%,-7.181%,26.4%,-9.295%
COc1cccc(N2CC3(CCN(c4ccc(C)nn4)C3)CC2=O)c1 (stereo unspecified),-0.3984%,-0.6316%,18.58%,-29.24%
Cc1ccc2c(c1)C(NC(C)C)CC21CCNCC1 (stereo unspecified),-1.057%,-9.514%,21.05%,-37.79%
CN(C)[C@@H]1CCN(c2ncccn2)[C@H]1Cc1ccncc1,0.4143%,-2.727%,-0.9434%,-5.078%
COCCOC1CCN(C(=O)NCc2cc(C)oc2C)CC1,-1.372%,1.681%,2.564%,-22.48%
Cc1nn(C)c(Cl)c1CNCc1cccnc1N1CCN(C)CC1,0.5297%,5.263%,20%,-22.12%
COc1ccccc1C1CCN(C(=O)c2ncccc2OC(C)C)C1 (stereo unspecified),-1.763%,-1.768%,4.386%,0.4984%

The values are deposited in ChEMBL (CHEMBL3988442, “University of Dundee, Small-Polar-MMV Screening Library” (2021)).